Publication PMC7819943, “Rice protein-binding microarrays: a tool to detect cis-acting elements near promoter regions in rice”
Some of the results follow.

Protein sequences, listed by entry. Tags and fused reporters are not part of them.
UniProt Q0JBA9, entry or part of it: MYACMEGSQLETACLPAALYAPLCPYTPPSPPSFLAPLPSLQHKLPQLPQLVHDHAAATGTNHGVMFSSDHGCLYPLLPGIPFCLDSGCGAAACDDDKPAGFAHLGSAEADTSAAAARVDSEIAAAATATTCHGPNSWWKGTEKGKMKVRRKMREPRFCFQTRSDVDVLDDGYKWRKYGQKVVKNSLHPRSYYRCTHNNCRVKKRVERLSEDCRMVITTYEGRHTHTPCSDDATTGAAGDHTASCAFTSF

target: OsWRKY34 (Oryza sativa, UniProt Q0JBA9 1-250); test: protein-binding microarray (RPBM); PBS, 2% BSA, 51.3 ng/ul salmon testes DNA, 50 uM zinc acetate, 200 nM TF, 25 C, 1 h; high values mean tight binding; settings: protein: recombinant; tags: N-terminal polyhistidine and DsRed monomer fusion (pET32a); label: CyDye5-dUTP incorporated in the synthesized complementary strand; 3' TTTTT single-stranded linker to array surface; dsDNA, one strand shown
Summary of the method: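 The binding signal is fluorescence intensity per feature, in arbitrary units, read on an Axon 4000B scanner. Polyhistidine- and DsRed-tagged transcription factors (N-terminal fusions) from E. coli BL21-CodonPlus were purified on Ni–NTA and applied at 200 nM for 1 h at 25 °C to a double-stranded, BSA-blocked custom Agilent array in buffer with 50 µM zinc acetate.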

Sequence | binding signal
TCTTCACCGCCGCCGTGCTCCACCGTATCCTTCGGCGACCCGGAGTCACCTAGTGCAG | 10100 fluorescence intensity (a.u.)
CTGTGTTGCAGTCATTTTCTCTCCCATAGCTGTCCTTATACGGAGTCACCTAGTGCAG | 11400 fluorescence intensity (a.u.)
ACCGTTCGTCTTATTCAAAAATTTTAAGTAATTATTAATTCGGAGTCACCTAGTGCAG | 8260 fluorescence intensity (a.u.)
GGCTGGCGGGCGGCGGGCGGGCGAGGACAAGCACCTCTCCCGGAGTCACCTAGTGCAG | 13000 fluorescence intensity (a.u.)
CACACATAACTCATCGCCTCATCATCGTCATCTATCTCCGCGGAGTCACCTAGTGCAG | 8360 fluorescence intensity (a.u.)
ATTAGTTTTTTTTTCTATATTTAATACTCCATGCATATGTCGGAGTCACCTAGTGCAG | 9200 fluorescence intensity (a.u.)
TCCTGTCCTGTCGGTGCTCTCGACTCCTCACCTCACCCACCGGAGTCACCTAGTGCAG | 9880 fluorescence intensity (a.u.)
GTTTTAGCTGTAGTGTGTTTGCTTGCTGTTTGAATCAAACCGGAGTCACCTAGTGCAG | 9550 fluorescence intensity (a.u.)
CCACCAGTTTAATTATTCTATTGTACCTGCTCTATTATATCGGAGTCACCTAGTGCAG | 8470 fluorescence intensity (a.u.)
CTCCACCCTGGAATTTTCTTCTCTACCAAGTCCCTTTCAACGGAGTCACCTAGTGCAG | 8330 fluorescence intensity (a.u.)
CTAGCCAGTTCTTGCAGCCGTTTAGTCTGTTGTGACAATTCGGAGTCACCTAGTGCAG | 8070 fluorescence intensity (a.u.)
CTACACATCAATTCAGTTTATTCTTATTTTTAGGGTCATGCGGAGTCACCTAGTGCAG | 8500 fluorescence intensity (a.u.)
ATCTGGACCTATTTACAGCGGTTGACTTGATCTACCAATGCGGAGTCACCTAGTGCAG | 8400 fluorescence intensity (a.u.)
ACGGCCTAGTTTTGGTTGAAGTTTTTGGTAGGGGTTAGTTCGGAGTCACCTAGTGCAG | 12300 fluorescence intensity (a.u.)
ATGCAAACTCTGACTCTGACCACTGGGCCCAACACGATCCCGGAGTCACCTAGTGCAG | 8400 fluorescence intensity (a.u.)
AGGTTGTGTTTAGTTCCTTGTCAAAATTTTTTATGCATATCGGAGTCACCTAGTGCAG | 11400 fluorescence intensity (a.u.)
GTCTCGCACTTTCACTGTATGATACCGGCCACGATGTCATCGGAGTCACCTAGTGCAG | 9930 fluorescence intensity (a.u.)
GGCCATCCTATTCCTAGCTCATCATCACACTCTTGCATACCGGAGTCACCTAGTGCAG | 9510 fluorescence intensity (a.u.)
TTCTGTCGTGATTGCTTTGCTTCGGGTTTGCTCAGCGCTACGGAGTCACCTAGTGCAG | 8650 fluorescence intensity (a.u.)
GTTCTTTTGTCGCTTATTGCAACGGGTGGGATATGTGTGACGGAGTCACCTAGTGCAG | 12300 fluorescence intensity (a.u.)
GCTGCCTATTCCATACAAATTTCGTAGGTTCATTTCCAACCGGAGTCACCTAGTGCAG | 10000 fluorescence intensity (a.u.)
TCCCAAGTCCCAACTGCCAGCTCTGCCCACTTCTCGAAGCCGGAGTCACCTAGTGCAG | 8600 fluorescence intensity (a.u.)
TTGGGCTCGTTTTGTGTTAATGTGGGCATATGTGGGTGATCGGAGTCACCTAGTGCAG | 8130 fluorescence intensity (a.u.)
CAAATCTGTAGTCCGCTTTCTTCTCTCTCTTCTCTCTTCTCGGAGTCACCTAGTGCAG | 8060 fluorescence intensity (a.u.)
GACTTCTATCGTGACTTCGATACATTTTGATCTTGTTTCTCGGAGTCACCTAGTGCAG | 9220 fluorescence intensity (a.u.)
GCTTTTCATTTGTCCTAGTGCTGGTTGGTAGGTACTTGCTCGGAGTCACCTAGTGCAG | 11100 fluorescence intensity (a.u.)
AAGTTTAATTTGTTATTTTTATTTTTATACGTCATCTTTTCGGAGTCACCTAGTGCAG | 9760 fluorescence intensity (a.u.)

Sequence | binding signal
TGTTGTATGCTTGTATGGGTTAAATATGTAATTATTACTACGGAGTCACCTAGTGCAG | 8040 fluorescence intensity (a.u.)
CTTCTCAAGTTCCAACCTTTGCGCTTTCTTATTATCAAAGCGGAGTCACCTAGTGCAG | 8550 fluorescence intensity (a.u.)
TATTCTGGTTTTGTGCGTTGCAACAAGTGTTCTTGGATGTCGGAGTCACCTAGTGCAG | 8500 fluorescence intensity (a.u.)
GGGGTTATGGTGGATTTGGTGCTTTGGGGCATTATGTTTACGGAGTCACCTAGTGCAG | 13800 fluorescence intensity (a.u.)
CATTCTATTCCATTTTCAGTCGCATAGGTCTATAAATAAACGGAGTCACCTAGTGCAG | 8780 fluorescence intensity (a.u.)
GAGTCGGGTTGTTGTTCATGACCACCGGCAGCCACCGTACCGGAGTCACCTAGTGCAG | 9030 fluorescence intensity (a.u.)
GCTTCTCTGGTAATAGATTCAATAATGGCTTTCGTTGTCCCGGAGTCACCTAGTGCAG | 11400 fluorescence intensity (a.u.)
GCCTTTTCATTGGCCACCTATGGCTAATTGTGCAGAAATCCGGAGTCACCTAGTGCAG | 8410 fluorescence intensity (a.u.)
CCGCGGGTGGGGAGATTTGACCGGCGTTGACTCCGGGATGCGGAGTCACCTAGTGCAG | 14300 fluorescence intensity (a.u.)
GCCAAGTTTCTTGCCCTCAGCGTGCTCGTTCTTTGTTGATCGGAGTCACCTAGTGCAG | 9030 fluorescence intensity (a.u.)
CTATGACAGCATTACATTTGAAAACTTTGCTTTTGTAACTCGGAGTCACCTAGTGCAG | 8330 fluorescence intensity (a.u.)
ATGGTTTTTCAGGGTTGGATTTATGTGTGGTCAGTTTAAACGGAGTCACCTAGTGCAG | 12000 fluorescence intensity (a.u.)
TCAGACAAGTATTTTAACCGTATTCGTTTCATGTCTATATCGGAGTCACCTAGTGCAG | 9480 fluorescence intensity (a.u.)
AAGACTCCTTTGACTTAAATTACTGGGCGGATTAGGATTACGGAGTCACCTAGTGCAG | 8180 fluorescence intensity (a.u.)
AAGTGTGGAGGTGGCATATCTTTATCCATTTGGTTGTTATCGGAGTCACCTAGTGCAG | 10500 fluorescence intensity (a.u.)
GTTTGACCATTCGTTTTATTCAATTTTTTTTAGTAAATATCGGAGTCACCTAGTGCAG | 9640 fluorescence intensity (a.u.)
TTTCTAGTCAAACTTCATAGGTTGACTAAATTTATGAAAACGGAGTCACCTAGTGCAG | 11800 fluorescence intensity (a.u.)
GAAATTCTGTCCAGATACGTTGTGACTAGGACATGTCACACGGAGTCACCTAGTGCAG | 8740 fluorescence intensity (a.u.)
TAATCTTAAAAGCCATTATTACTCTCTTACTCGCTTTCATCGGAGTCACCTAGTGCAG | 9160 fluorescence intensity (a.u.)
CTACGAGCTTGAGCTAGATCCTGAGGCGGGGTAGTATTCCCGGAGTCACCTAGTGCAG | 8980 fluorescence intensity (a.u.)
TTCAACTGTTTTGTCCAAACTATAAATTTGCAGCAACTTTCGGAGTCACCTAGTGCAG | 10300 fluorescence intensity (a.u.)
TACAGCAAATGTTACAATCCTGGGTTTTATTTTCCCATTCCGGAGTCACCTAGTGCAG | 8070 fluorescence intensity (a.u.)
CTGTAGCCCATTTTCCTTTTTTTCTCTTCTTTTTTCTTCTCGGAGTCACCTAGTGCAG | 10800 fluorescence intensity (a.u.)
ACCCACTGCCGGTCATCCACCGTCCACGGCCGTCCCTTTACGGAGTCACCTAGTGCAG | 8100 fluorescence intensity (a.u.)
TGTTACCTCCCCTGCTTCTCTTCCGCCCGTTTCATGGACTCGGAGTCACCTAGTGCAG | 9040 fluorescence intensity (a.u.)
TTGTGTGTGCGTTTGTGATTGCGTCGGTCGGTTTCAGTTCCGGAGTCACCTAGTGCAG | 17500 fluorescence intensity (a.u.)
GCGTGTTGAGTCGGATCGAGGTTTGCGTTTGTGTTCGTTTCGGAGTCACCTAGTGCAG | 8760 fluorescence intensity (a.u.)

Shown field by field: entries from further up.
GCCAAGTTTCTTGCCCTCAGCGTGCTCGTTCTTTGTTGATCGGAGTCACCTAGTGCAG
  binding signal = 9030 fluorescence intensity (a.u.)
CTATGACAGCATTACATTTGAAAACTTTGCTTTTGTAACTCGGAGTCACCTAGTGCAG
  binding signal = 8330 fluorescence intensity (a.u.)
